According to PubChem BioAssay (EPA / NIEHS):
Values joined by “and” are separate entries in the source; they are usually repeats but may differ in a detail not shown here. Equal entries are not always repeated. Inconclusive means that the source gave no clear call. Such entries were picked first, then a sample of the others. Potencies of inconclusive entries are doubtful fits and often do not repeat. Active and inactive are the calls of the source. The calls were made as follows: active = hit-call score of the fitted dose curve at least 0.9, where 1 is the maximum; inconclusive = response in the unintended direction; inactive = score below 0.9.

test: Tanguay_ZF_120hpf_OTIC_legacy: (Legacy) Oregon State University Tanguay Lab 120 Hour Post-fertilization zebrafish Assay for Otic Vesicle Malformation (AID 2283639)
Method in brief: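 Binary scoring of otic vesicle defects at 120 hpf in zebrafish (Tropical 5D) held under static exposure at 28C, sealed and shaded, with final DMSO 0.64%. Embryos dying by 24 or 120 hpf excluded; fitted positively against DMSO.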

| SMILES | AC50 | outcome |
| --- | --- | --- |
| CCN(CC)C(=O)SCc1ccc(Cl)cc1 | inconclusive: 8.4 µM |  |
| CO/N=C(/C1=NOCCO1)c1ccccc1Oc1ncnc(Oc2ccccc2Cl)c1F | inconclusive: 20.2 µM |  |
| CCCN(CCC)c1c([N+](=O)[O-])cc(S(N)(=O)=O)cc1[N+](=O)[O-] | inconclusive: 182 µM |  |
| C#CCOS(=O)OC1CCCCC1Oc1ccc(C(C)(C)C)cc1 (stereo not given) |  | inactive |
| CCOc1cc(Oc2ccc(C(F)(F)F)cc2Cl)ccc1[N+](=O)[O-] | inconclusive: 1.96 µM |  |
| Cc1c(F)c(F)c(COC(=O)C2C(/C=C(\Cl)C(F)(F)F)C2(C)C)c(F)c1F (stereo not given) | active: 3.67 µM |  |
| CC(C)(C)C(O)/C(=C\c1ccc(Cl)cc1Cl)n1cncn1 (stereo not given) | active: 11.6 µM |  |
| N#Cc1cc(Br)c(O)c(Br)c1 |  | inactive |
| CCNS(=O)(=O)C(F)(F)C(F)(F)C(F)(F)C(F)(F)C(F)(F)C(F)(F)C(F)(F)C(F)(F)F | active: 46.9 µM |  |
| CC(C)(C)C(O)C(Oc1ccc(Cl)cc1)n1cncn1 (stereo not given) | active: 46.2 µM and active: 33 µM and active: 45.3 µM |  |
| CCCOCC(=Nc1ccc(Cl)cc1C(F)(F)F)n1ccnc1 |  | inactive |
| Oc1ccc(C(c2ccc(O)cc2)(C(F)(F)F)C(F)(F)F)cc1 | active: 51.7 µM |  |
| OCCOc1ccccc1 | inconclusive: 57.9 µM |  |
| Nc1c(Cl)cc([N+](=O)[O-])cc1Cl | active: 36.4 µM |  |
| COC(=O)C=C(C)OP(=O)(OC)OC | inconclusive: 32.8 µM |  |

Two neighbouring compounds already listed, quoted:

| SMILES | AC50 | outcome |
| --- | --- | --- |
| N#Cc1cc(Br)c(O)c(Br)c1 |  | inactive |
| CCNS(=O)(=O)C(F)(F)C(F)(F)C(F)(F)C(F)(F)C(F)(F)C(F)(F)C(F)(F)C(F)(F)F | active: 46.9 µM |  |
